Measurements taken from paper PMC6968712 (Drug Delivery, 2019).
Some peptides are written in HELM: one residue between dots, names in brackets for other building blocks, links after the first $.

Assay: general procedure: Fmoc solid-phase peptide synthesis
Conditions: whole synthesis, analytical RP-HPLC (Waters), C18 column, 5–95% acetonitrile in 0.1% trifluoroacetic acid, scale of the general procedure 0.1 mmol

Question: With “PEPTIDE1{G.I.G.A.V.L.K.V.L.T.T.G.L.P.A.L.I.S.W.I.K.R.K.R.Q.Q.[am]}$$$$V2.0” as the substance, how does the “final HPLC purity” value read?
Answer: The value was 96%.

Question: Which “final HPLC purity” value does the source give for “PEPTIDE1{R.P.K.P.Q.Q.F.F.G.L.M.[am]}$$$$V2.0” here?
Answer: Its value is 97.3%.

Question: For “PEPTIDE1{R.P.K.P.W.Q.W.F.W.L.L.[am]}$$$$V2.0”, which “final HPLC purity” value is on record?
Answer: The value was 98.8%.

Question: With “PEPTIDE1{[FITC].[Ahx].R.P.K.P.Q.Q.F.F.G.L.M.[am]}$$$$V2.0” as the substance, how does the “final HPLC purity” value read?
Answer: The value was 95.3%.

Question: Which “final HPLC purity” value does the source give for “PEPTIDE1{[Stearoyl].[dR].P.K.P.[dW].Q.[dW].F.[dW].L.L.[am]}$$$$V2.0” here?
Answer: Its value is 97%.

Question: For “PEPTIDE1{[dR].P.K.P.[dW].Q.[dW].F.[dW].L.L.[am]}$$$$V2.0”, which “final HPLC purity” value is on record?
Answer: Its value is 97.4%.
